Experimental data from paper PMC5011436.
No constants are given. Whether binding was seen depends on the method and setting. Binding seen in cells or lysates may run through a third protein. Some binding calls cover weakened binding; strength is not graded here. Tags and fused reporters may be left off the sequences shown.

Amino acid sequences for entries named in this document (tags omitted).
UniProt P42656: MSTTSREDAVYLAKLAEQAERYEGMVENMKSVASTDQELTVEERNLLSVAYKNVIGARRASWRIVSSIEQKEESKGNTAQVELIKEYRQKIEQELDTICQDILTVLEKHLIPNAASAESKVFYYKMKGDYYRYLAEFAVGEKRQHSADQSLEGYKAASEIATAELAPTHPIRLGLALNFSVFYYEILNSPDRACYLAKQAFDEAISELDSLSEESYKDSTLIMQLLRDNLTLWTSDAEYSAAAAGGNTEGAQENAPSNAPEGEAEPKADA

Tests used:
GST-Rad24 (S. pombe) [1] = biological target: GST-Rad24 (S. pombe) (UniProt P42656); test: condition: only extract of orb6-as2 cells treated with 50 μM 1-NA-PP1 (Orb6-as2 kinase inhibited); pull-down; as a1, but extract of orb6-as2 cells incubated with 50 μM 1-NA-PP1 for 15 min at 32°C (Orb6-as2 kinase inhibited); only the target purified
GST-Rad24 (S. pombe) [2] = biological target: GST-Rad24 (S. pombe) (UniProt P42656); test: pull-down; GST or GST-Rad24 on glutathione sepharose or magnetic beads, mixed with fission yeast protein extract of Sts5-HA strains overnight at 4°C; washed with TRIS lysis buffer (50 mM TrisCl pH 7.7, 150 mM NaCl, 5 mM EDTA, 5% glycerol, 1% Triton X); anti-HA western blot; extracts of untreated cells, of orb6-as2 cells with DMSO and of orb6+ cells with DMSO or 50 μM 1-NA-PP1; only the target purified

B1: Sts5-HA (protein, UniProt O74454 1-1066)
chain: MDEEFENDFPYKVMLNQQQDPSDAQSSPTFVPSANPSLTTPWLQTTPSANRPTWLPLQQHMHQLRHTGLLPAVESSFVHGHRRSASAGVGMGNFSNQATIPSNSPAVSNMQPPTQGGQPLYPTNFFTTSVSASSDSFPNSPTVPSKFSLNPSVATSTNISPRRHAKSHSVASVSSPNSHNAVPFTPHAFVPPVNNASPLPALNTLPQLLRPRNLDAQWRPSSLSQTNSPTHAANPSFPGTIVTHNTSNFRPEGGGHRHRRSTGSLSVGSSGSGFSSGGSGNPRKNLFSPYLPQSSIPALLAERRLVTGILIVSKKNRSDAFVSVDGLDAEVFICGSKDRNRALEGDVVAIELLDVDEVWAGKLEKEENRRRKDPISTRGSFDNLRIDAVPFEVPQRSAIKARDDEQVEGQTLFLLDQKQLGADEKPKYAGHVVAVLQRAPGQVFSGTLGILRPSSAANKERQTSSGNQGSSNNSGNDKPKIVWFKPSDKRVPLIAIPTEQAPTDFLGNDQAYAQRLFLASIKRWPVTSLHPFGMLVGELGSMDSMSAQVSALLHDTGVHSEPWEGSAATSAVTALNALSDNFLNVAGCADYRSEDVFLFVKNDVSKAAVSEVKQHESNINSSSATDFVSSAFHIRPTSTGYHVGIHVTDVSRVIEPGSPLDRELQRRSIAVNLCQKSVPLFPTTLGEALSLREDKDCYTMSLLLDVSSTGKIRGTWIGWAVIRPRKAYTMKEADELLQTDARLRLFHTVSSRLRTHHLGTDVPLSRYCRLVRRWDEESCSFDPNETNLFISSAVEVLRETLLDAANRAVASHLRQEFRENAFLRTQRLPSRENCRILQSMAIQMGCVLDLSSTKSLLRSLSLIEDDTVRNILQLYYYKVTPRAVYEMQKYKGNLASQMMSLGIEDESDDLTHFTAPLERYGDIVVHYQLQLLLRGELASEKRLRVWSQAANDASRRLVISKFAQETSIHIKIFSDWAESQVWQDGLVCFVAPSYFDVFFPSLGMEKRVHLDLLNLTHVRFEEDQGILSLYDESGAVTVVKLLTSVKVKLFVQLSTPPLINVSNVEF
binding (GST-Rad24 (S. pombe) [1]): no binding | binding (GST-Rad24 (S. pombe) [2]): binds
